According to US20110268699A1, “METHODS FOR TREATING MULTIPLE SCLEROSIS USING TETRACYCLIC PYRAZINOINDOLES” (BIOVISTA, INC., priority 2008, published 2011):
At least one structure is not confirmed: it was looked up by name or label, or the drawing left a doubt.

Tested on: MOG-induced EAE in female C57BL/6J mice
Assay: Histological analysis of spinal cord (H&E) of EAE mice: severity score and white matter damage
Type: in vivo, mouse
Settings: group B
Description: EXAMPLE. Histological Analysis of mice treated with pirlindole (BVA-201). Briefly, all samples are longitudinal sections of the vertebral column and spinal cord stained with hematoxylin and eosin (H&E). Sample A is the cranial part of the vertebral column and sample B is the caudal part. The modifiers F-focal, MF-multifocal, and D-diffuse are used to describe the distribution of inflammatory cellular infiltration. Diffuse is used when the lesion is continuous (at least on one side) and affects the entire SC. In some cases the lesion affects the entire SC (100%) but its distribution is multifocal because it is not contiguous i.e. there are small unaffected segments on one side, which are affected on the contralateral side. Histology analysis refers to 2 parameters: (a) Severity Score which is referring mainly but not limited to infiltration on inflammatory cells; and (b) White Matter Damage (WMD). Codes: Dist—distribution; GM—gray matter; IC—inflammatory cells; ND—not done; SC—spinal cord; Sev—severity; WM—white matter; WMD—white matter damage; WNL—within normal limits. Severity scores 0—WNL, 1—minimal, 2—mild, 3—moderate, 4—severe. Half grades are also used. Severity refers to the amount of inflammatory infiltration and WMD. If there is a discrepancy in the grade of these 2 changes, then this is noted. […]

C[C@@H]1C[C@H]2[C@@H]3CCC4=CC(=O)C=C[C@]4(C)[C@@]3(F)[C@@H](O)C[C@]2(C)[C@@]1(O)C(=O)CO [Dexamethasone]
Histology mean group severity score (inflammatory infiltration) (dexamethasone 1.0 mg/kg IP, FIG. 3): only active compound in reducing the severity score | Histology mean % of white matter damage (WMD) (positive control 1.0 mg/kg IP, FIG. 5): significant protective effect
